Assay results reported in PMC9863651, “Anti-Glioma Activity Achieved by Dual Blood–Brain Barrier/Glioma Targeting Naive Chimeric Peptides-Based Co-Assembled Nanophototheranostics” (Pharmaceutics, 2023).

Assay: NIR-808 laser induced temperature rise (photothermal effect)
Type: physicochemical

For `CC1(C)C(/C=C/C=C/C=C/C=C2\N(CCCCS(=O)(=O)O)c3ccc4ccccc4c3C2(C)C)=[N+](CCCCS(=O)(=O)[O-])c2ccc3ccccc3c21` [ICG, indocyanine green], the “temperature after 10 min of laser irradiation” value (ICG concentration of 27 μg/mL) was 46 °C, the “temperature elevation, on/off cycle 1” value (first of three successive on/off cycles, similar ICG concentrations) was 22 °C and the “temperature elevation, on/off cycle 2” value (second of three successive on/off cycles, similar ICG concentrations) was 12 °C. For the same molecule, the “temperature elevation, on/off cycle 3” value (third of three successive on/off cycles, similar ICG concentrations) was 4 °C.
